Laboratory results as given in paper PMC7819943, “Rice protein-binding microarrays: a tool to detect cis-acting elements near promoter regions in rice”.
The list shows a part of the results.

Sequences of proteins named here, by UniProt entry; tags and fusion partners are left off.
UniProt Q0JBA9, entry or part of it: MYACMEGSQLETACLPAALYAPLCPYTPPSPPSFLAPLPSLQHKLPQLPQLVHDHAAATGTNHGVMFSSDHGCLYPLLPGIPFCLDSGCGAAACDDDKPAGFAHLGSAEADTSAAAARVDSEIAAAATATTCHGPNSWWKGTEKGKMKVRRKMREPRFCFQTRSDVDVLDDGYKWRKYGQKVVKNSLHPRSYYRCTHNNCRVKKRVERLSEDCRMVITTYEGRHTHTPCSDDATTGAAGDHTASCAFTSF

Target: OsWRKY34 (Oryza sativa, UniProt Q0JBA9 1-250)
Assay: protein-binding microarray (RPBM); PBS, 2% BSA, 51.3 ng/ul salmon testes DNA, 50 uM zinc acetate, 200 nM TF, 25 C, 1 h; high values mean tight binding
Conditions: protein: recombinant; tags: N-terminal polyhistidine and DsRed monomer fusion (pET32a); label: CyDye5-dUTP incorporated in the synthesized complementary strand; 3' TTTTT single-stranded linker to array surface; dsDNA, one strand shown
Procedure, shortened: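 Transcription factors were made in E. coli BL21-CodonPlus as N-terminal fusions to a polyhistidine tag and DsRed, then purified on Ni–NTA. After primer extension with Cy5-dUTP and blocking with 2% BSA, a custom Agilent array was exposed for 1 h at 25 °C to 200 nM protein in PBS, 2% BSA, salmon testes DNA and 50 µM zinc acetate. Washed arrays were scanned on an Axon 4000B, and the binding signal is per-feature fluorescence intensity in arbitrary units.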

Row | Sequence | binding signal
1 | ATGAGTATATATAAGCTTAGTCTCTTTTCTTTTCTTTCTTCGGAGTCACCTAGTGCAG | 8940 fluorescence intensity (a.u.)
2 | GCTTGGCCTCTCTCTCTTTAGTTTAGCCGCAAACAATTTCCGGAGTCACCTAGTGCAG | 9000 fluorescence intensity (a.u.)
3 | TGTATTCCGCTCCGGTTCGGCGACACTCCACGTTCCAGTCCGGAGTCACCTAGTGCAG | 8620 fluorescence intensity (a.u.)
4 | ACTACCTCCACCCTCTTCTCTAATGATTTGCCTCGCTTGACGGAGTCACCTAGTGCAG | 8500 fluorescence intensity (a.u.)
5 | TTCTTGTCTCTTCTCCCTTTCCGCCTCGCCTCGCCTCGCTCGGAGTCACCTAGTGCAG | 8390 fluorescence intensity (a.u.)
6 | TTGTGGAGATTACCGTTTCTTATAATATAGTAATTACCGTCGGAGTCACCTAGTGCAG | 8110 fluorescence intensity (a.u.)
7 | GCTATCTCTGCAGCTGCAACCAATTGGCATGTGTGTGGCACGGAGTCACCTAGTGCAG | 9880 fluorescence intensity (a.u.)
8 | GATGGCATCAACCGCGTCTCTCTCTCTCTCTCTCGCCATCCGGAGTCACCTAGTGCAG | 8020 fluorescence intensity (a.u.)
9 | GCAAAATCAAGGTGGCCTATCGGACTCATTCCTCTCCATCCGGAGTCACCTAGTGCAG | 8670 fluorescence intensity (a.u.)
10 | TCCGTTCCGTGCTCTGTGTCCCATACTCTACGGCCACGCCCGGAGTCACCTAGTGCAG | 10100 fluorescence intensity (a.u.)
11 | CACTTCCTACCAGCATCCAAACATTCTAGCCAGGAACAAACGGAGTCACCTAGTGCAG | 8310 fluorescence intensity (a.u.)
12 | AAACTTCTAACTTTTCCATCACATCAAAGCTTTCCTACACCGGAGTCACCTAGTGCAG | 8390 fluorescence intensity (a.u.)
13 | ACCCATCATCATTTTCCACATATTTTTTCTTTTCAGCTCCCGGAGTCACCTAGTGCAG | 8810 fluorescence intensity (a.u.)
14 | TATTTTAAACTCTCGAGGGGACATTCCCTTGTTGTTTCCTCGGAGTCACCTAGTGCAG | 8910 fluorescence intensity (a.u.)
15 | GCGGAGGAGGGCGGGAGGAAGCGGGTGGCGGCGGCGGAGTCGGAGTCACCTAGTGCAG | 10900 fluorescence intensity (a.u.)
16 | TAAACCTCCTCTCGTTCTCACCTTTTTGTGCTCCATCTCTCGGAGTCACCTAGTGCAG | 9440 fluorescence intensity (a.u.)
17 | GTCCCGTGGCCGGTGCGCCCTTCTTCCCAATTGCGACACCCGGAGTCACCTAGTGCAG | 8250 fluorescence intensity (a.u.)
18 | CATGGGAATTGTGCCGGCTGTTTTTTTTCGTTTTCATCAGCGGAGTCACCTAGTGCAG | 10200 fluorescence intensity (a.u.)
19 | CAACAAGCGTAACATTCTTTTTTCTTCTCTGAAAGACTGACGGAGTCACCTAGTGCAG | 9020 fluorescence intensity (a.u.)
20 | CAACGCATCGTCTTCCTTCTTCGTCGTCGATAGATCGGCTCGGAGTCACCTAGTGCAG | 8810 fluorescence intensity (a.u.)
21 | TTTGACTTTAGTCAAAGTCAAACTACTCTAACTTTGACTACGGAGTCACCTAGTGCAG | 9840 fluorescence intensity (a.u.)
22 | GCCACCCGCGACCTCGAGCTTCCCTTCTCTCTCTCTCTCTCGGAGTCACCTAGTGCAG | 8160 fluorescence intensity (a.u.)
23 | CGCCCCTGACTGTACCAACTTATTTTCATTGACTATGATACGGAGTCACCTAGTGCAG | 8710 fluorescence intensity (a.u.)

Single values from the list.
For binding signal, CGCCCCTGACTGTACCAACTTATTTTCATTGACTATGATACGGAGTCACCTAGTGCAG is entered as 8710 fluorescence intensity (a.u.)
For binding signal, GCCACCCGCGACCTCGAGCTTCCCTTCTCTCTCTCTCTCTCGGAGTCACCTAGTGCAG is entered as 8160 fluorescence intensity (a.u.)
